Measured values as given in publication PMC3464273.
Results are given in words; binding and its absence hold for the method and conditions named. For some of these results: A result given as binding can be weak or reduced; the word gives no strength.

Assays:
[1] = target: TAP-tagged full length KREPA4 (T. brucei); assay: TAP-tag affinity purification, fi
[2] = target: TAP-tagged full length KREPA4 (T. brucei); assay: TAP-tag affinity purification, bo
[3] = target: TAP-tagged KREPA4 FL minus OB-fold (C-terminal) (T. brucei); assay: TAP-tag affinity purification, first step (TEV eluate), with western blot
[4] = target: TAP-tagged KREPA4 OB-fold (C-terminal), fused to the mitochondrial import signal (T. brucei); assay: as above

B1: KREPA2, endogenous (protein, UniProt A0A3L6L0V2 1-587)
chain: MYRRFFRSAAVKHLGTTSAQCLMRATKYPCGAMCRNASSCHPQTLGYQQRFQSTTDKKFHCSVCKKPFRLEMAAKLHLQQAHGGDGSVEAGPGPGVEASSVNVVSTPVPSPISPVERTFVDEEERRPRRMRPTPKPLHQPDRDIPAAAMEEMLGVWDKIGLNRLEGNFVHSTMVMKVFAAPPDVSEIPLYEHVAPEGENPFDSLDHMTTGTVDATYVGHDAFAEVDLVDPFVAAPDQTLNPFRAGKVRNPFTRISPTQREVVKPLQPPQPKEEPLKAPVTPFGQLPMFGQTREPSASFAAAAVSVQAAANPNEVSSPFAAAVSSSPFVGQVASPFAPAQDVAGSPFEASPCAASSPFVTAGGQETSPFAAPSTPASFGQGSLFPPMGTGAPGFTAITETEQRQQELEHGCPTCGKKFSTFEGAAMHSKSKHGIVLESKKVKDRLNRKGVPDLPAYVPSPVDLSSTSPFGTRSAIGASWAETELIPHAQCVSNITIVGRVLDVSQASENVSHVTVFVEGERSGEEETLTLCCFGEVSQKIRGTLKRNATIFASGTLRLHPVYEASNNKYYVSPVVHVSMPTGTLAVIT
With B1 the binding [1] was “binds”, the binding [2] was “binds” and the binding [3] was “no binding”. For the same binder, the binding [4] was “no binding”.
